Some of the results follow.
Legend:
Test in all cases: log2 fold change, soluble protein after heating vs DMSO (PISA); higher = thermal stabilisation; K562 lysate, 10 uM; active = over 0.2 and 3.5 SD of the protein, either way, in both replicates (recomputed)
ibrutinib = compound: C=CC(=O)N1CCC[C@@H](n2nc(-c3ccc(Oc4ccccc4)cc3)c3c(N)ncnc32)C1 [ibrutinib]
In short: (§1)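 Log-two fold change in thermal stability relative to solvent controls is reported from duplicates. For each sample, crude K562 extract from dounce-homogenised pellets in PBS pH 7.4 with 1 mM MgCl2, at 1 mg/mL protein, was treated with 10 μM compound for 30 min. Aliquots heated for 3 min across 48°C-58°C were pooled, brought to 0.5% NP-40 at 4°C and cleared at 21,000xg for 90 min. The supernatant was quantified by TMTpro 16plex LC-MS/MS with channel sums equalised.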

Chains of the proteins cited; added tags and fusions are not shown. Lines headed by an entry give the natural chain unless they say otherwise; changes in a name come on top.
UniProt Q8WYH8, whole entry, looked up: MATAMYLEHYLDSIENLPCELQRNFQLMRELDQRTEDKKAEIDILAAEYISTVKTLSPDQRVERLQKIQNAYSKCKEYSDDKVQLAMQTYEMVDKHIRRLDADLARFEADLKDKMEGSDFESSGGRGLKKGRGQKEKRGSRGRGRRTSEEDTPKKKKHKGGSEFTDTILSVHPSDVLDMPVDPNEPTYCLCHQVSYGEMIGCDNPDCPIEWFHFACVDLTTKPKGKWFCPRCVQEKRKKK
UniProt A2RU49: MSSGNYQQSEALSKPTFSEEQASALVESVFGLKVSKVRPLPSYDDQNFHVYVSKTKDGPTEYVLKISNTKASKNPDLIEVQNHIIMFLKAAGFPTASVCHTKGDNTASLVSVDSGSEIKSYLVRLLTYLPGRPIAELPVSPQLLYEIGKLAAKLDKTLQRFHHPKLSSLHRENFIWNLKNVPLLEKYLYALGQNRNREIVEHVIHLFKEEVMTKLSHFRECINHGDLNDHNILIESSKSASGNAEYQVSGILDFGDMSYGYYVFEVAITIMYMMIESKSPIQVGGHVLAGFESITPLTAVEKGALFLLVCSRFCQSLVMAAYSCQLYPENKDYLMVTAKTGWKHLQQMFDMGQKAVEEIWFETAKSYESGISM
UniProt Q9Y2H2: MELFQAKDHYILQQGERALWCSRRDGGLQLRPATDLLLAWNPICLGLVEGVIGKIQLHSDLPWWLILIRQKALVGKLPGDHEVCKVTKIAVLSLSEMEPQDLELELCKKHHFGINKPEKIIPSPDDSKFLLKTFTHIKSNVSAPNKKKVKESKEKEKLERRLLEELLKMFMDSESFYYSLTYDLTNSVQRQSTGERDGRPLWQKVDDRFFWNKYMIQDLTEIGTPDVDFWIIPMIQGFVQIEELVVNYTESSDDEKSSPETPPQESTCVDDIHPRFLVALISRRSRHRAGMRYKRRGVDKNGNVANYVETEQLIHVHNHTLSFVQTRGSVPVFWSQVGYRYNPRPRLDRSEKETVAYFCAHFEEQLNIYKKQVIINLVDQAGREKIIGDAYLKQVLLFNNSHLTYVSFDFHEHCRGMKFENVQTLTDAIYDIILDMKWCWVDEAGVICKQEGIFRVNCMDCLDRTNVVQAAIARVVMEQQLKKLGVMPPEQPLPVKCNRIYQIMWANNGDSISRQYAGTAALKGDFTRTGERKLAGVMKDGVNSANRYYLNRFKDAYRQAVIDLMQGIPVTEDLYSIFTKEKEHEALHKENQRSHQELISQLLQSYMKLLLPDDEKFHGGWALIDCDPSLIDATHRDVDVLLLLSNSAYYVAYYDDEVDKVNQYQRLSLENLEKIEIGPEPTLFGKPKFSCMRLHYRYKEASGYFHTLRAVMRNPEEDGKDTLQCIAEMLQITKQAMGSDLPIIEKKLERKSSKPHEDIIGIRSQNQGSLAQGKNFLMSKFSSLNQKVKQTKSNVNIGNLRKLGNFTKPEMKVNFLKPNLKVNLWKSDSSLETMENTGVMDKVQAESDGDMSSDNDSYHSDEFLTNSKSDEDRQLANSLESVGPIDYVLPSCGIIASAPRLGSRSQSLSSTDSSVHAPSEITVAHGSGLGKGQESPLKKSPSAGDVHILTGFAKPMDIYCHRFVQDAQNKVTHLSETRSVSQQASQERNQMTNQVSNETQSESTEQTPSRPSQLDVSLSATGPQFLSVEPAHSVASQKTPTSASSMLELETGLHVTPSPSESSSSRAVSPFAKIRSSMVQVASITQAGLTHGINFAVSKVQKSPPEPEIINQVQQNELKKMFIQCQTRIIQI
UniProt P01860, whole entry, looked up: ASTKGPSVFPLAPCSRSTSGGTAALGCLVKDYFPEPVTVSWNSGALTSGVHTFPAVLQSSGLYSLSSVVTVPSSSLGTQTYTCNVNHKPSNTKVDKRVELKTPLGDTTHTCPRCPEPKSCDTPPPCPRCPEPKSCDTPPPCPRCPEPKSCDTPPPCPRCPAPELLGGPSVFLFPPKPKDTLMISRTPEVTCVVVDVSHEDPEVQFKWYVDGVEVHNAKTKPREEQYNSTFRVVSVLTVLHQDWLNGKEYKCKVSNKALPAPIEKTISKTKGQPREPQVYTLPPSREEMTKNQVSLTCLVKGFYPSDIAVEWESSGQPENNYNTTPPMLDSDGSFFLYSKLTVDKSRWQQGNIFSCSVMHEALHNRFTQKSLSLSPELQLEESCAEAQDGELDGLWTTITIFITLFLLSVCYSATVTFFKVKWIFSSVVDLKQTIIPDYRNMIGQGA
UniProt Q13478: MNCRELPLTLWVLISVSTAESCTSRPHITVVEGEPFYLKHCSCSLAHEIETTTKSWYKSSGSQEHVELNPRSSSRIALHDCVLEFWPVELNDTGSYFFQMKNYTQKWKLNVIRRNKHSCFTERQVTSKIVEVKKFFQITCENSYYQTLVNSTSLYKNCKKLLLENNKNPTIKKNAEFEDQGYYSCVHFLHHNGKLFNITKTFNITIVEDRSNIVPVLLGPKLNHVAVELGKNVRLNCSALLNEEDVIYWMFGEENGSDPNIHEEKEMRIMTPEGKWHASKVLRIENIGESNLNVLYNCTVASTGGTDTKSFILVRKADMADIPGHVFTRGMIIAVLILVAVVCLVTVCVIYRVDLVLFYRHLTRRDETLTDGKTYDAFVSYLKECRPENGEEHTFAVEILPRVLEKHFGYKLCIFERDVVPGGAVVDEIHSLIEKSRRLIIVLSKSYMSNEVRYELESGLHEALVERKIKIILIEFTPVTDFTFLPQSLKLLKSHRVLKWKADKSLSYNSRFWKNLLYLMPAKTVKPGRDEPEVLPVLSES
UniProt P41252: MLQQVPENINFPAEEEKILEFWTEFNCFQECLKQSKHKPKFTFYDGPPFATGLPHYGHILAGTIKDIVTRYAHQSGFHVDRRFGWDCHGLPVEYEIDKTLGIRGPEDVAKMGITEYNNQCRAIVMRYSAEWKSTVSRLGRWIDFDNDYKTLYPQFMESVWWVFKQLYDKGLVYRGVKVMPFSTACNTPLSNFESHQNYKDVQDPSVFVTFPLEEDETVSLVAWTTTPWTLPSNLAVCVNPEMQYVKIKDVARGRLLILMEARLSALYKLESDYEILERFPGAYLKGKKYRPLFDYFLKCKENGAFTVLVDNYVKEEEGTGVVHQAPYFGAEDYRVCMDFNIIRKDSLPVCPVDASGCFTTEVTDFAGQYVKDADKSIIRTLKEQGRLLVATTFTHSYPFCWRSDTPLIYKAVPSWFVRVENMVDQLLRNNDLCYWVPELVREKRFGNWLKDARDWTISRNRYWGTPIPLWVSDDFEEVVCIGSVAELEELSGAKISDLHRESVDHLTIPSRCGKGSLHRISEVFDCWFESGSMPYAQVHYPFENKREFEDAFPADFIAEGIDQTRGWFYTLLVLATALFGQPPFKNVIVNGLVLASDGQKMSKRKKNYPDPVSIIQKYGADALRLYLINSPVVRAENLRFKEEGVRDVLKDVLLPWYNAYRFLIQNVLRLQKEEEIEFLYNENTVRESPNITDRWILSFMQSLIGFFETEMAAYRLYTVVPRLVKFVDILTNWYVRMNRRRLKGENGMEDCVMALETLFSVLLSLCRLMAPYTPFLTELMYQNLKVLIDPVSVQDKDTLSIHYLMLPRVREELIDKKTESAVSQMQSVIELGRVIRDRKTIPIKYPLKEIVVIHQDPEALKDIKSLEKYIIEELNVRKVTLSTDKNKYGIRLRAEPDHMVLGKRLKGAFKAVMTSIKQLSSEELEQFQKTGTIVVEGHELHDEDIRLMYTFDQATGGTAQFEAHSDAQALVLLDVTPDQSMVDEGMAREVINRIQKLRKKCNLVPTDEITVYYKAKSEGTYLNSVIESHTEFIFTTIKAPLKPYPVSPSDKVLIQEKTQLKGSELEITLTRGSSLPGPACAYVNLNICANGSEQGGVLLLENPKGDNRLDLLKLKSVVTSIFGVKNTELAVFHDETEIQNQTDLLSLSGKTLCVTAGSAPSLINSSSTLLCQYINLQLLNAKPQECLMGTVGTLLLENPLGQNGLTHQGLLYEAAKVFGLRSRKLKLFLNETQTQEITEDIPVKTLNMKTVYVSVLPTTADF
UniProt Q96T52: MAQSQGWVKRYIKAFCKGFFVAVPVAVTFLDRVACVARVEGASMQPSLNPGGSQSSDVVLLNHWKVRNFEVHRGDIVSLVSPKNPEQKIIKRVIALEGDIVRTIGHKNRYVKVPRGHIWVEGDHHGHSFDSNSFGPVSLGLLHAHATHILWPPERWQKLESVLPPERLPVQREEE

[1] = compound: CC(=O)c1cnc2ccc(-c3cc(Cl)c(O)c(Cl)c3)nc2c1N[C@H]1CC[C@H](CN(C)C)CC1
In short: as §1

ralimetinib = compound: CC(C)(C)Cn1c(N)nc2ccc(-c3[nH]c(C(C)(C)C)nc3-c3ccc(F)cc3)nc21 [ralimetinib]
In short: as §1

[2] = compound: CC(C)(O)CC(=O)NCCn1ccc2ncnc(Nc3ccc(Oc4cccc(C(F)(F)F)c4)c(Cl)c3)c21
In short: as §1

[3] = compound: CC(C)C1=C2N=C(C=C(N2N=C1)NCC3=CC=CC=C3)NCCCCCCN
In short: as §1

[4] = compound: CC1=C(C(CC(=O)N1)C2=CC=C(C=C2)C(F)(F)F)C(=O)NC3=C(C=C4C(=C3)C=NN4)F
In short: as §1

[5] = compound: CC1=C(C2=C(C=C1)C(=O)C3=CC=CC=C3N2CCCN)C
In short: as §1

[6] = compound: CC1=C(C=C(C=C1)NC(=O)C2=CC(=CC=C2)N(C)C)NC(=O)C3=CC=C(C=C3)O
In short: as §1

[7] = compound: CC1=CC=C(C=C1)SC2=C3C=C(SC3=CN=C2)C(=O)N
In short: as §1

[8] = compound: CCCS(=O)(=O)Nc1ccc(F)c(C(=O)c2c[nH]c3ncc(Cl)cc23)c1F
In short: as §1

barasertib = compound: CCN(CCCOc1ccc2c(Nc3cc(CC(=O)Nc4cccc(F)c4)[nH]n3)ncnc2c1)CCOP(=O)(O)O [barasertib]
In short: as §1

[9] = compound: CC[C@@H]1C(=O)N(C)c2cnc(Nc3ccc(C(=O)NC4CCN(C)CC4)cc3OC)nc2N1C1CCCC1
In short: as §1

volasertib = compound: CC[C@@H]1C(=O)N(C)c2cnc(Nc3ccc(C(=O)N[C@H]4CC[C@H](N5CCN(CC6CC6)CC5)CC4)cc3OC)nc2N1C(C)C [volasertib]
In short: as §1

[10] = compound: CCn1c(C(=O)N(C2CC2)C2CC2)cc2c3c(ncn3C)c(Nc3cc(C)n(C)n3)nc21
In short: as §1

saracatinib = compound: CN1CCN(CCOc2cc(OC3CCOCC3)c3c(Nc4c(Cl)ccc5c4OCO5)ncnc3c2)CC1 [saracatinib]
In short: as §1

[11] = compound: CC1=C(C=C(C=C1)NC(=O)C2=CC(=CC=C2)C(C)(C)C#N)NC3=CC4=C(C=C3)N=CN(C4=O)C
In short: as §1

sotrastaurin = compound: CN1CCN(c2nc(C3=C(c4c[nH]c5ccccc45)C(=O)NC3=O)c3ccccc3n2)CC1 [sotrastaurin]
In short: as §1

vemurafenib = compound: CCCS(=O)(=O)Nc1ccc(F)c(C(=O)c2c[nH]c3ncc(-c4ccc(Cl)cc4)cc23)c1F [vemurafenib]
In short: as §1

[12] = compound: CCn1cc(-c2ccnc3[nH]c(-c4cccc(CN(C)C)c4)cc23)c(-c2ccc(NC(=O)N(C)C)cc2)n1
In short: as §1

[13] = compound: CN1CCC(CNc2ccc3ncc(-c4cccc(OC(F)(F)F)c4)n3n2)CC1
In short: as §1

Measured: log2 fold change

ING5 (UniProt Q8WYH8)
inactive: ibrutinib 0.006 | [1] -0.014 | ralimetinib -0.13 | [2] -0.177 | [3] -0.028 | [4] -0.066 | [5] -0.054 | [6] 0.072 | [7] -0.059 | [8] 0.035 | barasertib 0.03 | [9] 0.078 | volasertib -0.058 | [10] -0.271 | saracatinib 0.041

HYKK (UniProt A2RU49)
inactive: ibrutinib 0.052 | [1] 0.209 | ralimetinib -0.182 | [2] -0.115 | [3] 0.193 | [4] 0.09 | [11] 0.092 | [6] -0.226 | [7] -0.057 | [8] 0.04 | barasertib -0.09 | [9] 0.115 | volasertib 0.004 | [10] 0 | sotrastaurin 0.152

INPP5F (UniProt Q9Y2H2)
inactive: ibrutinib -0.089 | [1] -0.41 | ralimetinib -0.122 | [2] -0.381 | [3] 0.005 | [4] -0.128 | [5] -0.201 | [6] -0.015 | [7] -0.29 | vemurafenib 0.361 | [8] 0.096 | barasertib 0.083 | [9] 0.582 | volasertib 0.037 | [10] -0.357 | [12] -0.335 | [13] 0.192 | saracatinib -0.006

IDE, A0A3B3ISG5
inactive: ibrutinib 0.021 | [1] -0.005 | ralimetinib 0 | [2] -0.013 | [3] -0.027 | [4] -0.007 | [5] -0.026 | [11] -0.008 | [6] 0.008 | [7] 0.006 | vemurafenib 0.005 | [8] 0.006 | barasertib -0.018 | [9] -0.014 | volasertib -0.009 | [10] -0.003 | [12] -0.013 | [13] -0.028 | saracatinib -0.022 | sotrastaurin 0.021

IMPDH2 (UniProt P12268)
inactive: ibrutinib 0.049 | [1] -0.003 | ralimetinib 0.034 | [2] 0.028 | [3] 0.025 | [4] -0.034 | [5] 0.019 | [11] 0.017 | [6] -0.006 | [7] 0.016 | vemurafenib 0.015 | [8] 0.009 | barasertib -0.056 | [9] -0.015 | volasertib 0.012 | [10] 0.039 | [12] 0.11 | [13] 0.01 | saracatinib -0.001 | sotrastaurin -0.005

Reprinted at random: 2 entries already listed, in no set order.
INPP5F (UniProt Q9Y2H2)
inactive: ibrutinib -0.089 | [1] -0.41 | ralimetinib -0.122 | [2] -0.381 | [3] 0.005 | [4] -0.128 | [5] -0.201 | [6] -0.015 | [7] -0.29 | vemurafenib 0.361 | [8] 0.096 | barasertib 0.083 | [9] 0.582 | volasertib 0.037 | [10] -0.357 | [12] -0.335 | [13] 0.192 | saracatinib -0.006

ING5 (UniProt Q8WYH8)
inactive: ibrutinib 0.006 | [1] -0.014 | ralimetinib -0.13 | [2] -0.177 | [3] -0.028 | [4] -0.066 | [5] -0.054 | [6] 0.072 | [7] -0.059 | [8] 0.035 | barasertib 0.03 | [9] 0.078 | volasertib -0.058 | [10] -0.271 | saracatinib 0.041

Continuation:

IGHG3 (UniProt P01860)
inactive: ibrutinib -0.442 | [1] -0.072 | ralimetinib -0.102 | [2] 0.487 | [4] 1.78 | [6] 0.092 | [7] 0.089 | [8] -0.282 | barasertib -0.29 | volasertib 0.006 | [10] 0.137 | [12] 0.2 | [13] -0.176

IL18R1 (UniProt Q13478)
inactive: ibrutinib -0.177 | [1] 0.117 | ralimetinib -0.261 | [2] -0.463 | [3] 0.053 | [4] -0.066 | [5] -0.031 | [11] 0.061 | [6] 0.15 | [7] 0.097 | vemurafenib 0.074 | [8] -0.026 | barasertib 0.061 | [9] 0.087 | volasertib 0.044 | [10] -0.184 | [12] -0.284 | [13] 0.085 | saracatinib 0.023 | sotrastaurin -0.064

IARS (UniProt P41252)
inactive: ibrutinib -0.015 | [1] -0.001 | ralimetinib 0.037 | [2] 0.035 | [3] 0.029 | [4] -0.016 | [5] 0.012 | [11] -0.04 | [6] 0.05 | [7] 0.029 | vemurafenib 0.004 | [8] 0.011 | barasertib 0.026 | [9] -0.086 | volasertib -0.079 | [10] 0.048 | [12] 0.044 | [13] -0.111 | saracatinib 0.006 | sotrastaurin 0.014

IMMP2L (UniProt Q96T52)
inactive: ibrutinib -0.041 | [1] -0.01 | ralimetinib 0.035 | [2] -0.041 | [3] -0.026 | [4] -0.068 | [5] -0.062 | [11] -0.011 | [6] 0.126 | [7] 0.066 | vemurafenib 0.013 | [8] -0.028 | barasertib 0.145 | [9] 0.095 | volasertib 0.017 | [10] -0.032 | [12] -0.079 | [13] 0.003 | saracatinib 0.038 | sotrastaurin 0.061
